Taken from: PubChem BioAssay AID1259254 (NCATS, 2017)

Screen: 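Genome-wide screen for genes that prevent DNA re-replication in cancer cells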 (primary screen)
Cell system: human HCT116 colorectal cancer cells
Reagent: single siRNA against human genes
Timing: 3 days
Detection: 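Nuclei stained with Hoechst and imaged; cell-cycle phase assigned by DNA content; G2 share scaled per plate, non-targeting siRNA 0%, GMNN siRNA 100%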
Direction: G2 robust z-score and G2 cells, % of GMNN control: higher = more G2 cells, more excess DNA replication; raw share of cells in G2: higher = larger share of cells with G2 DNA content
Hit rule: 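Active siRNAs have a G2 robust z of 5 or more median absolute deviations over the median, which in these data means about 38% or higher of GMNN control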
The whole screen tested about 59,000 reagents; this is a part drawn at random. About 1,550 of them (2.6%) count as active. 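G2 share is only a proxy for re-replication; each gene was hit by three separate siRNAs, and active genes were retested.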 Raw values vary from plate to plate and are shown uncorrected. No sequences are given here. Not stated in the record: the amount of reagent.

| gene | PubChem SID | G2 robust z-score | G2 cells, % of GMNN control | raw share of cells in G2 (%) | Call |
| --- | --- | --- | --- | --- | --- |
| COLQ (GeneID 8292) | SID160719809 | 0.57 | 6.97 | 8.22 | inactive |
| COLQ (GeneID 8292) | SID160719810 | 0.919 | 9.44 | 7.64 | inactive |
| COLQ (GeneID 8292) | SID160719811 | -0.0573 | 2.56 | 4.25 | inactive |
| ZNF528 (GeneID 84436) | SID160752236 | -0.118 | 2.14 | 3.55 | inactive |
| ZNF528 (GeneID 84436) | SID160752237 | -0.0864 | 2.36 | 6.98 | inactive |
| ZNF528 (GeneID 84436) | SID160752238 | -0.412 | 0.0717 | 3.65 | inactive |
| TUFM (GeneID 7284) | SID160718456 | 1.24 | 11.7 | 8.6 | inactive |
| TUFM (GeneID 7284) | SID160718457 | -1.17 | -5.25 | 3.38 | inactive |
| TUFM (GeneID 7284) | SID160731861 | 0.36 | 5.5 | 6.29 | inactive |
| MEIS1 (GeneID 4211) | SID160777127 | -0.588 | -1.17 | 2.81 | inactive |
| MEIS1 (GeneID 4211) | SID160777128 | -0.134 | 2.02 | 6.27 | inactive |
| MEIS1 (GeneID 4211) | SID160777129 | 0.533 | 6.72 | 7.96 | inactive |
| VARS1 (GeneID 7407) | SID160718702 | 0.103 | 3.69 | 7.16 | inactive |
| VARS1 (GeneID 7407) | SID160718703 | 2.86 | 23.1 | 12.1 | inactive |
| VARS1 (GeneID 7407) | SID160718704 | 0.0732 | 3.48 | 5.56 | inactive |
| LINC02909 (GeneID 196415) | SID160760615 | 0.151 | 4.03 | 5.05 | inactive |
| LINC02909 (GeneID 196415) | SID160760617 | 0.271 | 4.87 | 4.59 | inactive |
| LINC02909 (GeneID 196415) | SID160760618 | -0.5 | -0.549 | 2.59 | inactive |
| VENTX (GeneID 27287) | SID160738647 | -0.771 | -2.46 | 5.05 | inactive |
| VENTX (GeneID 27287) | SID160738648 | -1.37 | -6.67 | 1.97 | inactive |
| VENTX (GeneID 27287) | SID160738649 | -0.304 | 0.826 | 4.26 | inactive |
| MIR34BHG (GeneID 728196) | SID160771576 | 0.725 | 8.07 | 6.6 | inactive |
| MIR34BHG (GeneID 728196) | SID160771577 | 0.0185 | 3.1 | 3.96 | inactive |
| MIR34BHG (GeneID 728196) | SID160771578 | 0.0486 | 3.31 | 4.85 | inactive |
| XPO6 (GeneID 23214) | SID160735734 | -1 | -4.08 | 3.39 | inactive |
| XPO6 (GeneID 23214) | SID160735735 | -0.522 | -0.709 | 3.84 | inactive |
| XPO6 (GeneID 23214) | SID160735736 | 0.0158 | 3.08 | 4.33 | inactive |
| RPS26P28 (GeneID 643003) | SID160725599 | 4.12 | 32 | 12.5 | inactive |
| RPS26P28 (GeneID 643003) | SID160768754 | -0.759 | -2.37 | 2.74 | inactive |
| RPS26P28 (GeneID 643003) | SID160768755 | 1.74 | 15.2 | 8.74 | inactive |

Quoted from the listing for reference:
| gene | PubChem SID | G2 robust z-score | G2 cells, % of GMNN control | raw share of cells in G2 (%) | Call |
| --- | --- | --- | --- | --- | --- |
| TUFM (GeneID 7284) | SID160718457 | -1.17 | -5.25 | 3.38 | inactive |
| TUFM (GeneID 7284) | SID160731861 | 0.36 | 5.5 | 6.29 | inactive |
| MEIS1 (GeneID 4211) | SID160777127 | -0.588 | -1.17 | 2.81 | inactive |
